The inconclusive results got no clear call from the source; some entries with a clear call stand among them for comparison. Active and inactive are the calls of the source.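 Rule for the calls, unless noted: active = thallium flux slope above the same plate's solvent-only control mean plus 3 SD; inconclusive = the two replicate wells disagree; inactive = no significant difference from solvent-only control wells.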
Experiments:
[1] = target: Solute carrier family 12 member 5 (Homo sapiens) (UniProt Q9H2X9); experiment: retest of KCC2 transport modulators without sodium – cell-based, HEK293 KCC2, thallium flux, secondary assay, confirmation (AID 1713); settings: FluoZin2 fluorescence, at 10 µM, stronger effect = higher value
Procedure, shortened: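 System: HEK cells expressing human KCC2 cotransporter; Buffer or medium: Na-free NMDG-Cl buffer; Also added: thallium sulfate stimulus buffer at pH 7.3; Dosing: 10 µM single dose, 0.1% DMSO; Timing: 48 min dye loading; Measured by: kinetic FluoZin2 fluorescence at 1 Hz, ex 480/em 540 nm; Read-out: baseline-normalized fluorescence slope, 10–20 s post-Tl+.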

Amino acid sequences for entries named in this document (tags omitted). A change or cut given only in a name is not applied to a line headed by its entry.
UniProt Q9H2X9: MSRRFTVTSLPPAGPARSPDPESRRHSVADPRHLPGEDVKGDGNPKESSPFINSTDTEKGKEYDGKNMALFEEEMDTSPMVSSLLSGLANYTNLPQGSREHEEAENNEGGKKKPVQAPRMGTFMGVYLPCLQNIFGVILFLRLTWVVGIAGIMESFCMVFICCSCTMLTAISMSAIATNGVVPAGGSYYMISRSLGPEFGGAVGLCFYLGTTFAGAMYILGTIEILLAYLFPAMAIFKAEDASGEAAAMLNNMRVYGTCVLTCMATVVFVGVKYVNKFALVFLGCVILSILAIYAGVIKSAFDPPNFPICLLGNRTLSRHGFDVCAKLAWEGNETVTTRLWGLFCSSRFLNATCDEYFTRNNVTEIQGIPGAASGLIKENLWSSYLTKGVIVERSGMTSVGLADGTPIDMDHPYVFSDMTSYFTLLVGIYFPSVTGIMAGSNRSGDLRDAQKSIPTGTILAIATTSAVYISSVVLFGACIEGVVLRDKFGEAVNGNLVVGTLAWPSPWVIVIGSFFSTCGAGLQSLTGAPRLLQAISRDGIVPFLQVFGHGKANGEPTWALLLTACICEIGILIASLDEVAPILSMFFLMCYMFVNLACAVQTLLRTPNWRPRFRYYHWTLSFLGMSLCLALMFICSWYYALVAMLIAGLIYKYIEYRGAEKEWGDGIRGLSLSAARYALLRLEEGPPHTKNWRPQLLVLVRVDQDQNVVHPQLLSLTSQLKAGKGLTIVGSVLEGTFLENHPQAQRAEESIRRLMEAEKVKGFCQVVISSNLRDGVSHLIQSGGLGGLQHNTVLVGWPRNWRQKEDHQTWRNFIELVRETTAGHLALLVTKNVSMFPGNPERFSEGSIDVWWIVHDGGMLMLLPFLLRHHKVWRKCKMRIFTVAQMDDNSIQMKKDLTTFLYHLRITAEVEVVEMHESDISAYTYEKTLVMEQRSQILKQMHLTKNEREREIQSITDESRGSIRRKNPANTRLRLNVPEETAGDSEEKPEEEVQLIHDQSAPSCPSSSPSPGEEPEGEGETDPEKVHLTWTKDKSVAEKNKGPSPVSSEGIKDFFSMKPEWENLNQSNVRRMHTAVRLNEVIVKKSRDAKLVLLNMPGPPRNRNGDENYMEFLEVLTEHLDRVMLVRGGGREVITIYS

[2] = FluoZin2 fluorescence counter-screen of MLSMR hits on KCC2-expressing cells (AID 1714;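 active = thallium entry rate above the same plate's blocked-transporter control wells by more than 3 SD; inconclusive = the two repeat wells disagree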;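 note: raw slope of fluorescence over initial fluorescence between 10 and 20 s after thallium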); settings: HEK293-KCC2 + bumetanide/ouabain, at 10 µM, stronger effect = higher value
Procedure, shortened: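 Assay system: HEK cells expressing the K-Cl cotransporter KCC2; buffer or medium: HBSS-HEPES plus ouabain 0.2 mM, bumetanide 2 mM; reagent: thallium stimulus; compound dosing: 10 µM single dose; timing: 48 min dye loading; signal: FluoZin2-AM (0.5 µM) fluorescence, 480 nm ex/540 nm em, 1 Hz kinetic imaging; replication: duplicates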

[3] = target: Solute carrier family 12 member 5 (Homo sapiens) (UniProt Q9H2X9); experiment: modulation of KCC2 thallium flux in HEK cells – cell-based, ouabain, retest, confirmation (AID 1717;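 active = thallium flux slope beyond 3 SD from same-plate DMSO control mean in most replicates, usually higher, sometimes lower; inconclusive = repeat tests gave conflicting results; inactive = no significant difference from controls in most replicates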;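 note: slope of initial-normalized fluorescence between seconds 10 and 20 after thallium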); settings: HEK293-KCC2, thallium flux FluoZin2 fluorescence, at 10 µM, bidirectional: low = inhibitor, high = activator
[4] = native HEK Tl+ uptake effects, second counter-screen – HEK cells, counterscreen 2, counter-screen for KCC2 modulator project, confirmation (AID 1718;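 active = thallium flux slope above the same plate's solvent-control mean plus 3 SD in both duplicate wells; inconclusive = duplicate wells that disagreed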;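 note: run without ouabain in cells lacking the KCC2 cotransporter; slope of fluorescence scaled to its starting value between 10 and 20 s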); settings: HEK293 parental, thallium flux FluoZin-2 fluorescence slope; at 10 µM
Procedure, shortened: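 Test system: parental HEK cells / Reagent: thallium sulfate stimulus, 12 mM in buffer, pH 7.3 / Compound: single 10 µM final compound dose, 0.1% DMSO / Timing: overnight cell culture at 37 °C, 48 min dye loading, compound before thallium / Detection: FluoZin-2 fluorescence kinetics / Read-out: rate of F/F0 rise, 10–20 s after thallium addition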

[5] = compound effects on native HEK Tl+ uptake – HEK cells, counterscreen 1, counter-screen for KCC2 modulator project, confirmation (AID 1716;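 active = thallium flux rate significantly above the same plate's solvent-only control wells, beyond their mean plus 3 SD; inconclusive = the two replicate wells gave conflicting results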); settings: HEK293 parental cells, thallium flux FluoZin2, ouabain; at 10 µM; baseline-ratio fluorescence slope, 10–20 s after thallium

Compound	normalised thallium flux (F/F0 slope) [1]	normalized thallium flux [2]	raw Tl+ flux slope (below DMSO = inhibition, above = activation) [3]	thallium flux slope [4]	thallium flux rate (normalised fluorescence) [5]
Nc1nonc1C(=O)NCCN=Cc1ccccc1O	inconclusive: 0.00482	inconclusive: 0.00558	inactive: 0.0196		
CCc1ccc(Nc2nnc(SC3CCOC3=O)s2)cc1 (configuration not stated)	inactive: 0.00636	inconclusive: 0.00539	inconclusive: 0.0164		
Cc1cc(/C=C2\SC(=S)NC2=O)c(C)n1-c1ccccc1	inactive: 0.0106	active: 0.0474	inconclusive: 0.0288	active: 0.0132	
O=C1CC(c2nc3ccccc3[nH]2)CN1Cc1ccccc1 (configuration not stated)	active: 0.0117	inconclusive: 0.0076	inactive: 0.0209	inactive: 0.0106	
O=C(O)CC(=O)NC12CC3CC(CC(C3)C1)C2	inactive: 0.00917	inactive: 0.00617	inactive: 0.0221	inconclusive: 0.0113	
Oc1ccc(COCc2ccccc2)c2cccnc12	inactive: 0.00823	active: 0.0276	inconclusive: 0.0325	inactive: 0.0111	
O=C(Nc1ccn(-c2ccccc2)n1)c1ccc(S(=O)(=O)N2CCCCCC2)cc1	inconclusive: 0.0049	inactive: 0.00411		inactive: 0.0108	inactive: 0.0072
Cc1nccc(-c2cccc(N/N=C(\C#N)C(=O)c3ccccc3)c2)n1	inconclusive: 0.0122	active: 0.0358	inactive: 0.025	active: 0.0115	
COc1ccccc1CNc1n[nH]c(NCc2ccccc2OC)n1	inconclusive: 0.00476	inactive: 0.00498	inactive: 0.0181	inactive: 0.0109	
Cc1ccc(CN(c2ccc(C(=O)Nc3ccc4c(c3)OCO4)cc2)S(C)(=O)=O)cc1	inactive: 0.00757	inconclusive: 0.0054	inactive: 0.0188		
S=C(NCC1CC1)N/N=C/c1ccccc1Cl	inconclusive: 0.00987	active: 0.0241	inconclusive: 0.0269		
Oc1c(N=NC(=S)Nc2ccccc2F)c2ccccc2n1Cc1ccccc1	inconclusive: 0.0126	active: 0.046		inconclusive: 0.0131	inconclusive: 0.017
O=S(=O)(NCc1csc(-c2cccs2)n1)c1cccc(C(F)(F)F)c1	inconclusive: 0.0121	inactive: 0.00357	active: 0.0101	inconclusive: 0.00825	
Cc1ccc(C(=O)NC(=S)N2CCN(C(=O)OC(C)(C)C)CC2)cc1Br	inconclusive: 0.00993	active: 0.0877	active: 0.0874		
CCOc1ccc(NC(=S)NNC(=O)c2ccc(Br)cc2)cc1	active: 0.0141	active: 0.0554		inconclusive: 0.0153	inconclusive: 0.0263
CCN(CC)c1ccc2cc(C(=O)Nc3ccccn3)c(=O)oc2c1	active: 0.00312	inconclusive: 0.00351	active: 0.00541		
COc1ccc(Nc2nc(N3CCCC3)nc(N3CCCC3)n2)c(OC)c1	inconclusive: 0.011	inactive: 0.00661	inactive: 0.0231	inactive: 0.011	
COc1ccc(NC(=O)c2cccnc2N2CCCC2)cc1	inconclusive: 0.00519	inactive: 0.00497	inactive: 0.0193		
CCn1c(NC(=O)c2ccccc2)nc2ccccc21	inactive: 0.00629	active: 0.0181	inconclusive: 0.0251		
COC(=O)c1cc2c(ccn2-c2ccc(F)cc2)n1CC(=O)N1CCN(C(=O)c2ccco2)CC1	inconclusive: 0.00553	inconclusive: 0.00449	inconclusive: 0.0162	inactive: 0.0104	
COc1cccc(/C=N/N2C(=O)CSC2=S)c1O	active: 0.0129	active: 0.0156	inconclusive: 0.0267	inconclusive: 0.0111	
CCOC(=O)c1ccccc1NC1OC(=O)c2ccccc21 (configuration not stated)	inconclusive: 0.00979	inactive: 0.00795	inactive: 0.0206	inconclusive: 0.0103	inconclusive: 0.0076
CCCn1nnc(NC(=O)c2ccc(F)cc2)n1	inconclusive: 0.0117	inconclusive: 0.00766	inactive: 0.0242		
CCn1cc(C2=NOC(C(=O)Nc3cc(C)nn3-c3ccccc3)C2)c(C)n1 (configuration not stated)	inactive: 0.0109	inconclusive: 0.00722	inactive: 0.022		

Rewritten in markdown: 2 of the compounds above.

| Compound | normalised thallium flux (F/F0 slope) [1] | normalized thallium flux [2] | raw Tl+ flux slope (below DMSO = inhibition, above = activation) [3] | thallium flux slope [4] | thallium flux rate (normalised fluorescence) [5] |
| --- | --- | --- | --- | --- | --- |
| CCn1c(NC(=O)c2ccccc2)nc2ccccc21 | inactive: 0.00629 | active: 0.0181 | inconclusive: 0.0251 |  |  |
| COC(=O)c1cc2c(ccn2-c2ccc(F)cc2)n1CC(=O)N1CCN(C(=O)c2ccco2)CC1 | inconclusive: 0.00553 | inconclusive: 0.00449 | inconclusive: 0.0162 | inactive: 0.0104 |  |
